Data reported in PubChem BioAssay AID624297 (National Center for Advancing Translational Sciences (NCATS), 2012).
Hit rate of the full screen: of about 340,000 compounds, about 6,200 (1.8%) were called active. The shares of active, inactive and inconclusive entries below differ from those in the screen. Calls come from the whole dose curve; as a rule, active = well fitted activation curve with a large enough effect; inconclusive = small, poorly fitted or top-dose-only effect; inactive = no such curve, though single readings can be large or run the other way. A potency beside an inconclusive call is a rough fit, not a confirmed value.

Assay: A quantitative high throughput screen for small molecules that induce DNA re-replication in SW480 colon adenocarcinoma cells. Note: nearly all actives have a fitted effect of over 55% in size.
Settings: Hoechst DNA content imaging, 48 h; series mostly up to 46.1 µM
Summary of the method: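 Compounds, transferred as 23 nL by pin tool, were incubated with cells for 48 hr; DNA content per nucleus was then quantified by Hoechst staining and fluorescence plate imaging.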
Potency is the fitted concentration of half-maximal effect.

SMILES | Potency
CCCc1nnc(NC(=O)C(=O)NCCN(C)C)s1 | inconclusive: 29.1 µM [activator, single point]
Clc1ccc(OCCCNCc2ccccc2)c(Br)c1 | inconclusive: 20.6 µM [activator, single point]
FC(F)(F)c1nnc2c(Sc3ccccc3)nc3ccccc3n12 | inconclusive: 2.59 µM [activator, full curve]
CSc1nc2ccc(NC(=O)c3c(F)cccc3F)cc2s1 | inconclusive: 0.231 µM [activator, full curve, poor fit]
CSC1=NC2(CCCCC2)CC12C=CC(=O)C=C2 | inactive
Cc1cccc(CC2CC(=O)N(c3nc4ccccc4s3)C2=O)c1 (stereo not given) | inactive
CCOc1ccc(S(=O)(=O)N2CCC(C(=O)N3CCOCC3)CC2)cc1C | inactive
Cc1nn(Cc2c(Cl)cccc2Cl)c(Cl)c1/C=N/NC(=O)c1cccnc1 | inconclusive: 18.4 µM [activator, partial curve, poor fit]
O=C(NCC(=O)N(CCN1CCOCC1)C(C(=O)NC1CCCC1)c1cccnc1)c1cccs1 (stereo not given) | inconclusive: 1.3 µM [activator, partial curve, poor fit]
CCN1CCC(CN2CCNC2=S)CC1 | active: 16.4 µM
CCOc1ccc2oc(C(=O)Nc3nccs3)c(C)c2c1 | inconclusive: 29.1 µM [activator, single point]
COc1ccc(C2=Nn3c(nnc3-c3ccccc3Cl)SC2)cc1OC1CCOC1 (stereo not given) | inconclusive: 5.8 µM [activator, full curve, poor fit]
CC(C)Cn1c(-c2cc(Br)ccc2F)nc2c1c(=O)[nH]c(=O)n2CC(C)C | inconclusive: 20.6 µM [activator, single point]
CCCOc1ccc(NC(=O)CC2C(=O)N(Cc3ccccc3)C(=S)N2Cc2cccs2)cc1 (stereo not given) | inconclusive: 20.6 µM [activator, single point]
O=C(C(=NNc1ccccc1)c1ccccc1)c1ccccc1 | inconclusive: 20.6 µM [activator, partial curve, poor fit]
O=C(NC12CC3CC(CC(C3)C1)C2)c1ccc(-c2ccc(Cl)cc2)o1 | inconclusive: 29.1 µM [activator, single point]
COc1ccc2cc(/C=N/NC(=O)c3c(Cl)cnn3C)c(Cl)nc2c1 | inconclusive: 29.1 µM [activator, partial curve, poor fit]
N#CCC(=O)Nc1ccc(C(=O)OCC(=O)N2CCN(C(=O)c3ccco3)CC2)cc1 | inactive
COC(=O)CSc1nnc(-c2ccncc2)n1N | inactive
CC(=O)Nc1cc(NC(C)=O)cc(C(=O)NCC2(N3CCOCC3)CCCCC2)c1 | inactive
CC(=O)c1ccc(Sc2nnnn2-c2ccccc2)c([N+](=O)[O-])c1 | inconclusive: 18.4 µM [activator, single point]
COc1ccc(CNC(=O)C2CC(c3ccc(C(F)(F)F)cc3)=NO2)cc1 (stereo not given) | inactive
CC(CCc1ccc(O)cc1)NC1C2CC3CC(C2)CC1C3 (stereo not given) | inconclusive: 0.0046 µM [activator, full curve, poor fit]
COc1ccc(C(=O)C2CCCN(C(=O)c3cc(C4CC4)[nH]n3)C2)c(C)c1 (stereo not given) | inconclusive: 29.1 µM [activator, single point]

SMILES | Potency
CC(=O)Nc1cccc(NC(=O)C2C3C=CC(C3)C2C(=O)O)c1 (stereo not given) | inactive
Cc1cccc(OCC(O)CN2CCN(c3ccccn3)CC2)c1C (stereo not given) | inconclusive: 29.1 µM [activator, single point]
O=C(COC(=O)/C=C/c1ccc(Cl)cc1)Nc1ccccc1 | inactive
CC1=C(C(=O)OCc2ccccc2)C(/C=C/c2ccccc2)NC(=S)N1 (stereo not given) | inactive
CC(=NNC(=O)c1ccncc1)c1ccc(Cl)c(Cl)c1 | inactive
Cc1cc(=O)n2nc(N3CCC(C(=O)NCc4ccc(Cl)cc4)CC3)sc2n1 | inactive
Cc1cc(C)c2nc(C(F)(F)F)nc(NCCCN3CCOCC3)c2c1 | inconclusive: 18.4 µM [activator, single point]
CCOC(=O)c1c(NC(=O)C2CCN(S(=O)(=O)c3ccc(Cl)cc3)CC2)sc2c1CCCC2 | inconclusive: 2.91 µM [activator, full curve, poor fit]
COc1ccc(/C=C/C(=O)c2ccc(O)cc2)cc1CN1CCOCC1 | inconclusive: 29.1 µM [activator, single point]
Cc1cccc2cc3c(N)c(C(=O)N4CCCc5ccccc54)sc3nc12 | active: 5.17 µM
CCCCN(C)C(=O)Cn1cnc2sc(C)c(S(=O)(=O)N3CCN(c4ccccc4OC)CC3)c2c1=O | inactive
CC[C@]12c3[nH]c4cc(-c5ccco5)ccc4c3CCN1C(=O)[C@@H](CC(=O)NCC13CC4CC(CC(C4)C1)C3)C[C@@H]2C(=O)N1CCN(C(=O)c2ccco2)CC1 | inconclusive: 0.116 µM [activator, full curve, poor fit]
O=C(COC(=O)c1ccccc1OCc1ccc(Cl)cc1)NCC1CCCO1 (stereo not given) | inactive
COC(=O)CSc1nc(N)c2c3c(sc2n1)C(c1ccccc1)SC(c1ccccc1)C3 (stereo not given) | inactive
Cc1ccc2nc(NC(=O)C3CCN(S(=O)(=O)c4cc([N+](=O)[O-])ccc4Cl)CC3)sc2c1 | inconclusive: 18.4 µM [activator, partial curve, poor fit]
Cc1ccc(CCNC(=O)C2CCN(S(=O)(=O)c3ccc4c(c3)oc(=O)n4C)CC2)cc1 | inconclusive: 29.1 µM [activator, single point]
Cc1ccc(N=Cc2c(C)[nH]n(-c3ccccc3)c2=O)nc1 | inconclusive: 14.6 µM [activator, single point]
Cc1ccn2c(NC3CCCC3)c(-c3ccccn3)nc2c1 | inactive
O=C(/C=C/c1ccccc1O)c1ccccc1 | inconclusive: 16.4 µM [activator, single point]
Cc1ccc(S(=O)(=O)c2nc(-c3ccc(F)cc3)oc2SCC(N)=O)cc1 | inactive
CCC(C)NCCOCCOc1ccc(Br)cc1C (stereo not given) | inconclusive: 29.1 µM [activator, single point]
N#C/C(=C(\O)Cc1ccccc1)c1nc2ccccc2[nH]1 | inconclusive: 32.6 µM [activator, partial curve, poor fit]
COc1cccc(CN2CCCN(S(=O)(=O)c3ccc(Br)cc3)CC2)c1 | inconclusive: 3.66 µM [activator, full curve, poor fit]
O=c1cc(-c2ccccc2)nc2c(-c3ccccc3)c(C(F)(F)F)[nH]n12 | inconclusive: 29.1 µM [activator, single point]

4 entries from above, in markdown.

| SMILES | Potency |
| --- | --- |
| CCOc1ccc(S(=O)(=O)N2CCC(C(=O)N3CCOCC3)CC2)cc1C | inactive |
| CC(=O)Nc1cc(NC(C)=O)cc(C(=O)NCC2(N3CCOCC3)CCCCC2)c1 | inactive |
| O=C(COC(=O)c1ccccc1OCc1ccc(Cl)cc1)NCC1CCCO1 (stereo not given) | inactive |
| N#C/C(=C(\O)Cc1ccccc1)c1nc2ccccc2[nH]1 | inconclusive: 32.6 µM [activator, partial curve, poor fit] |

The list continues:

SMILES | Potency
C=CCN(CC=C)Cc1c(O)ccc2c(=O)c(-c3ccccc3)coc12 | inconclusive: 29.1 µM [activator, single point]
O=C(c1cccc([N+](=O)[O-])c1)c1ccccn1 | inactive
O=C(Cc1ccccc1)Nc1ccccc1C(=O)Nc1ccccc1 | inconclusive: 18.4 µM [activator, partial curve, poor fit]
COC(=O)c1ccc(NC(=O)CSc2nc(=O)n3cccc(C)c3n2)cc1 | inactive
O=C(/C=C/c1ccco1)Oc1cc(Br)cc(/C=N/NC(=O)c2ccccc2O)c1 | active: 0.731 µM
Nc1nc(=O)n(C2CC(O)C(CO)O2)cc1F (stereo not given) | inconclusive: 0.0052 µM [activator, full curve, poor fit]
CCOc1ccccc1/C=C/C(=O)c1ccc(Cl)cc1 | inconclusive: 16.4 µM [activator, single point]
CCc1nnc(NC(=O)c2cc(S(=O)(=O)N3CCN(CC)CC3)ccc2Cl)s1 | inconclusive: 6.51 µM [activator, single point]
Cn1cc(CN2CCCC(CO)C2)c(-c2ccc(Oc3ccccc3)cc2)n1 (stereo not given) | inconclusive: 32.6 µM [activator, partial curve, poor fit]
O=C(O)/C(=C\c1ccc(Cl)c([N+](=O)[O-])c1)c1ccc(S(=O)(=O)N2CCCCC2)s1 | inactive
COc1ccc(CN2CCOC2=O)cc1OC | inconclusive: 29.1 µM [activator, single point]
CCOC(=O)N1CCN(C(=O)c2sc3nc(-c4ccc(F)cc4)cn3c2C)CC1 | inactive
COc1cccc(-c2csc(N3CCN(C(=O)Nc4ccccc4Cl)CC3)n2)c1 | inactive
COc1cc2c3nnc(-c4ccccc4)c-3cn(Cc3ccc(F)cc3)c2cc1OC | active: 18.4 µM
COc1cccc(N2CCN(C(=O)c3cc(-c4ccccc4)nc4c3cnn4C(C)C)CC2)c1 | inconclusive: 29.1 µM [activator, single point]
Cn1c(SC(C(=O)Nc2ccc(F)cc2)c2ccccc2)nc2ccccc21 (stereo not given) | inconclusive: 29.1 µM [activator, single point]
O=C(CCc1[nH]c2ccccc2c1Sc1ccccc1)NCCO | inconclusive: 18.4 µM [activator, single point]
O=C(CSc1nnc(-c2ccc(Cl)cc2)n1Cc1ccco1)Nc1ccc2c(c1)OCCO2 | inactive
COc1ccc2nc(-c3ccccc3)cc(C(=O)OCC(=O)N3CCCCC3)c2c1 | active: 20.6 µM
COc1ccc(-c2oc3ccc(-c4ccc5c(c4)OCO5)cc3c2C#CC2(O)CCCCC2)cc1 | inconclusive: 29.1 µM [activator, partial curve, poor fit]
CC(C)(C)c1ccc(C(=O)CC(=O)c2cc(Cl)ccc2O)cc1 | inconclusive: 20.6 µM [activator, single point]
CC1CC(C)CN(C(=O)C(NS(=O)(=O)c2ccc(Br)s2)c2ccccc2)C1 (stereo not given) | inactive
